{"source": "PubChem BioAssay AID686943 (Drosophila RNAi Screening Center, 2013)", "aim": "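Search across the genome for regulators of signalling from receptor tyrosine kinase to ERK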 (primary screen)", "cells": "Drosophila S2R+ haemocyte-like cells expressing YFP-tagged ERK (Rolled)", "knock-down reagent": "long dsRNA against Drosophila genes", "treatment": "insulin stimulation versus unstimulated cells; dose and duration not given", "measurement": "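Antibody staining for doubly phosphorylated ERK divided by ERK-YFP signal, as plate z-scores, in insulin-treated and untreated cells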", "scale": "replicate 1, z-score of dpERK with insulin: higher = more active ERK per ERK-YFP after insulin", "note": "The screen tested about 23,000 reagents; below is a random part of those with a known target gene and a result. 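Extra replicates exist only for a retested subset of genes; insulin dose and duration not given; both raised and lowered dpERK matter.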 A plus sign joins genes that one reagent is predicted to hit. Further read-outs or replicates are left out here. No sequences are given here. Not given: the amount of reagent, the time to read-out."}
{"target": "abs (abstrakt)", "dsRNA": "DRSC12372", "replicate 1, z-score of dpERK with insulin": 1.43}
{"target": "Pde9 (Phosphodiesterase 9)", "dsRNA": "DRSC19746", "replicate 1, z-score of dpERK with insulin": 0.27}
{"target": "Pde9 (Phosphodiesterase 9)", "dsRNA": "DRSC19874", "replicate 1, z-score of dpERK with insulin": 1.22}
{"target": "Pde9 (Phosphodiesterase 9)", "dsRNA": "DRSC19875", "replicate 1, z-score of dpERK with insulin": -0.01}
{"target": "Pde9 (Phosphodiesterase 9)", "dsRNA": "DRSC19876", "replicate 1, z-score of dpERK with insulin": 0.18}
{"target": "Spn75F (Serpin 75F)", "dsRNA": "DRSC09589", "replicate 1, z-score of dpERK with insulin": -0.48}
{"target": "CG15040", "dsRNA": "DRSC19616", "replicate 1, z-score of dpERK with insulin": 0.9}
{"target": "CG15040", "dsRNA": "DRSC21482", "replicate 1, z-score of dpERK with insulin": 1.15}
{"target": "CG31249", "dsRNA": "DRSC16248", "replicate 1, z-score of dpERK with insulin": 0.8}
{"target": "Prp6 (pre-mRNA processing factor 6)", "dsRNA": "DRSC10724", "replicate 1, z-score of dpERK with insulin": 0.06}
{"target": "Prp6 (pre-mRNA processing factor 6)", "dsRNA": "DRSC21773", "replicate 1, z-score of dpERK with insulin": 2.27}

The list goes on, starting with the last 4 of the part before.
{"target": "CG15040", "dsRNA": "DRSC21482", "replicate 1, z-score of dpERK with insulin": 1.15}
{"target": "CG31249", "dsRNA": "DRSC16248", "replicate 1, z-score of dpERK with insulin": 0.8}
{"target": "Prp6 (pre-mRNA processing factor 6)", "dsRNA": "DRSC10724", "replicate 1, z-score of dpERK with insulin": 0.06}
{"target": "Prp6 (pre-mRNA processing factor 6)", "dsRNA": "DRSC21773", "replicate 1, z-score of dpERK with insulin": 2.27}
{"target": "CG6937 + btn", "dsRNA": "DRSC16917", "replicate 1, z-score of dpERK with insulin": 0.26}
{"target": "mRpS5 (mitochondrial ribosomal protein S5)", "dsRNA": "DRSC21380", "replicate 1, z-score of dpERK with insulin": -0.37}
{"target": "CG17777", "dsRNA": "DRSC18137", "replicate 1, z-score of dpERK with insulin": 0.04}
{"target": "Dscam1 (Down syndrome cell adhesion molecule 1)", "dsRNA": "DRSC05047", "replicate 1, z-score of dpERK with insulin": -0.92}
{"target": "Dscam1 (Down syndrome cell adhesion molecule 1)", "dsRNA": "DRSC05048", "replicate 1, z-score of dpERK with insulin": 0.29}
{"target": "Dscam1 (Down syndrome cell adhesion molecule 1)", "dsRNA": "DRSC07407", "replicate 1, z-score of dpERK with insulin": 0.29}
{"target": "Dscam1 (Down syndrome cell adhesion molecule 1)", "dsRNA": "DRSC21562", "replicate 1, z-score of dpERK with insulin": 0.21}
{"target": "Dscam1 (Down syndrome cell adhesion molecule 1)", "dsRNA": "DRSC22383", "replicate 1, z-score of dpERK with insulin": -1.03}
{"target": "CG6420", "dsRNA": "DRSC16035", "replicate 1, z-score of dpERK with insulin": 0.67}
{"target": "CG15888", "dsRNA": "DRSC15125", "replicate 1, z-score of dpERK with insulin": -0.61}
{"target": "lncRNA:CR43372 (long non-coding RNA:CR43372)", "dsRNA": "DRSC15041", "replicate 1, z-score of dpERK with insulin": 0.21}
{"target": "Pde6 (Phosphodiesterase 6)", "dsRNA": "DRSC16401", "replicate 1, z-score of dpERK with insulin": -0.93}
{"target": "Pde6 (Phosphodiesterase 6)", "dsRNA": "DRSC16402", "replicate 1, z-score of dpERK with insulin": -0.03}
{"target": "Pde6 (Phosphodiesterase 6)", "dsRNA": "DRSC16403", "replicate 1, z-score of dpERK with insulin": 0.26}
{"target": "CG5535", "dsRNA": "DRSC10514", "replicate 1, z-score of dpERK with insulin": 0.83}
{"target": "CG34223", "dsRNA": "DRSC05268", "replicate 1, z-score of dpERK with insulin": 0.14}
{"target": "CG32640 + CG32641", "dsRNA": "DRSC22885", "replicate 1, z-score of dpERK with insulin": -2.93}
{"target": "DIP-gamma (Dpr-interacting protein gamma)", "dsRNA": "DRSC14873", "replicate 1, z-score of dpERK with insulin": -0.49}
{"target": "CG14717", "dsRNA": "DRSC14940", "replicate 1, z-score of dpERK with insulin": 0.75}
{"target": "lncRNA:CR40629 (long non-coding RNA:CR40629)", "dsRNA": "DRSC20959", "replicate 1, z-score of dpERK with insulin": -1}
